For at least one compound, name, drawing or mass did not settle the structure. Some of these results come from one statement about several compounds together.
Tests used:
[1] = Drug release into PBS and extraction from HEMA-based hydrogel discs; format: physicochemical; conditions: PBS, FIGS. 8 and 9; for time after which release is substantially lower: HEMA-based material without MPMA
Description: At 0.5, 1, 2, 4, 6, and 8 hours the PBS was removed and fresh PBS was added.

[2] = cited from earlier work

Structure (SMILES): C[C@@H]1C[C@H]2[C@@H]3CCC4=CC(=O)C=C[C@]4(C)[C@@]3(F)[C@@H](O)C[C@]2(C)[C@@]1(O)C(=O)COP(=O)(O)O [dexP, dexamethasone phosphate]
- time after which release is substantially lower [1]: 2 to 4 h

Structure (SMILES): C[C@]12C=CC(=O)C=C1CC[C@@H]1[C@@H]2[C@@H](O)C[C@@]2(C)[C@H]1CC[C@]2(O)C(=O)COP(=O)(O)O [predP, Prednisolone phosphate]
- duration of controlled release ([1]; HEMA-based material with MPMA incorporated): at least 24 hours
- time after which release is substantially lower [1]: 2 to 4 h
- Physiological charge [2]: −2

Reference: patent publication US20210299039A1, “COMPOSITIONS AND METHODS FOR TREATING OCULAR DISEASE BY CONTACT LENS MEDIATED DRUG DELIVERY” (EyeGate Pharmaceuticals, Inc., priority 2020, published 2021)
